Test [1] concerns the target cynomolgus ABCC4 (cynomolgus). In words: FACS, C6 cells stably expressing cynomolgus ABCC4.
For test [2], the target named is cynomolgus ABCC4 (cynomolgus). The test is described as follows: FACS, different C6.cC4 cell line expressing cynomolgus ABCC4; + = MFI>3x background.
Test [3] has as its target T1, human ABCC4 (human, UniProt O15439 1-1325).
T1 construct: Expressed on murine C6 cells stably transfected with human ABCC4 cDNA with C-terminal FLAG tag; also called MRP4; Multidrug resistance protein 4; not shown: C-terminal fused FLAG tag
T1 sequence: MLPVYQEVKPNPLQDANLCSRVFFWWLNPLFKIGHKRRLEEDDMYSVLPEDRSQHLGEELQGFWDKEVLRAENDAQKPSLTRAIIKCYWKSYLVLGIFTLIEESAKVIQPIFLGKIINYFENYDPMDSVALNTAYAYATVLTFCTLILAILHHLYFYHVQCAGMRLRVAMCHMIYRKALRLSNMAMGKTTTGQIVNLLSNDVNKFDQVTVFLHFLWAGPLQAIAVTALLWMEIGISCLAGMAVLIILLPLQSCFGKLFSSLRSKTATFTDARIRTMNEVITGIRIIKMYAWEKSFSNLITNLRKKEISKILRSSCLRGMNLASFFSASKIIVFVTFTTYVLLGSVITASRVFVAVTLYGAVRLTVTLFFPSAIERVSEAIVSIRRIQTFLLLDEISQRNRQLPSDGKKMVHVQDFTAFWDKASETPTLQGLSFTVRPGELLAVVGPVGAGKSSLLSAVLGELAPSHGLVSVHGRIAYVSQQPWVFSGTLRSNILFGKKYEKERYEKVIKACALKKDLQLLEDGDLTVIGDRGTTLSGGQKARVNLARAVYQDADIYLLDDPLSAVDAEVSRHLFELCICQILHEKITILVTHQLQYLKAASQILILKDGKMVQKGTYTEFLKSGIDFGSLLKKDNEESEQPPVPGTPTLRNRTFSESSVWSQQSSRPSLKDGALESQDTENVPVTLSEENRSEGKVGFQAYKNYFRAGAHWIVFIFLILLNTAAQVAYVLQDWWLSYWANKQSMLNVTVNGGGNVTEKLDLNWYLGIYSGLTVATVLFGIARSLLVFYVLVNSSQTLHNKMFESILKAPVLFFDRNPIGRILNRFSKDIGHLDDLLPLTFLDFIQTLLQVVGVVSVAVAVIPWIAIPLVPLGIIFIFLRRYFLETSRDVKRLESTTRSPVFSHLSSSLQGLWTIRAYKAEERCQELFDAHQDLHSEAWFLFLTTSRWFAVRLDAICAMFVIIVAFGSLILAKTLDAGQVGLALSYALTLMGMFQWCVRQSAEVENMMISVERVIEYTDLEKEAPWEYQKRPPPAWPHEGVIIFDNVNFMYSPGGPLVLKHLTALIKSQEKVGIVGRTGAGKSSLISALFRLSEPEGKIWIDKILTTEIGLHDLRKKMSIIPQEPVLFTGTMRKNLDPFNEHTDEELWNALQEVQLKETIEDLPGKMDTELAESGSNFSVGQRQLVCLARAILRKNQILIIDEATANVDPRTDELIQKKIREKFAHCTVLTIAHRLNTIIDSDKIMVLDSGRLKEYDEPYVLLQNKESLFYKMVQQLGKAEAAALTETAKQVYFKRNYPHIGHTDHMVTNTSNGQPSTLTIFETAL
In words: FACS, C6 cells stably expressing human ABCC4.

Test [4] addresses T1, human ABCC4. The test is described as follows: FACS, C6 cells stably expressing human ABCC4; + = MFI>3x background. The method, then:
Antibody binding to cells was evaluated by flow cytometry. Murine C6 cells stably transfected to express human or cynomolgus ABCC4 were washed once in flow cytometry buffer (PBS+2% FBS+0.02% sodium azide), resuspended at 2×10\hat{ }6 cells/mL in flow cytometry buffer, and dispensed into 96-well microtiter plates at 0.1 mL/well. Recombinant antibodies were added to cells at 5 ug/mL for initial binding confirmation, or serially diluted from 100 ug/mL in flow cytometry buffer. After incubating cells on ice for 30 min, cells were washed twice with flow cytometry buffer. Bound antibody was detected with PE-labeled F(ab′)₂ fragment goat anti-human IgG (Jackson ImmunoResearch) and evaluated on an Attune N×T flow cytometer. EC50 is calculated to be the concentration of antibody that gives half maximal response.

These are yes or no findings as the source states them, for the method shown. Some results given as binding are weak or reduced against the parent protein; the word gives no strength.

B1: C4.1134 (antibody, V domains shown)
VH: EVQLVESDGGLVQPGRSLKLSCAASGFTFSDFYMAWVRQAPTKGLEWIATISHDGRNTFYRDSVKGRFTISRDNAKRALYLQMDSLRSEDTATYYCASLTTRYKGVMEAWGQGASVTVSS
VL: DVVMTQSPSHLAASPGESVSINCKASKNIYKYLAWYQQKPGKTNKLLIYSGSTLQSGTPSRFSGSGSGSDFTLTIRNLEPEDFGLYYCQHHNEYPPTFGGGTKLEIK
For B1, the binding result in test [1] and in test [2] was “binds” throughout.

B2: C4.1143 (antibody, V domains shown)
VH: EVQLVESDGGLLQPGRSLKLSCAASGFTFSDFYMAWVRQAPTKGLEWIATISHDGRNTYYRDSVKGRFTISRDNAKRTLYLEMDSLRSEDTATYYCATLTTRYKGVMEAWGQGASVTVSS
VL: DVVMTQSPSHLAASPGESVSINCKASKNIYKYLAWYQQKPGKTNKLLIYSGSTLQSGTPSRFSGSGSGSDFTLTIRNLEPEDFGLYYCQHHNEYPPTFGGGTKLEIK
With B2, the binding result (in test [1]; with human ABCC4 [3]; in test [2]; in the test with human ABCC4 [4]) was “binds” each time.

B3: C4.1131 (antibody, V domains shown)
VH: EVKLVESDGGLVQPRKSLKLSCAASGFTFTDYYMAWVRQGPTMGLEWVATISNDGSTKYYRDSVKGRFTLSRDNAKTTLHLQMDSLRSEDTATYYCARLTIRYKGVMDAWGQGASVTVSS
VL: DVVMTQSPSHLAASPGESVSINCKASKNIYKYLAWYQQKPGKTNKLLIYSGSTLQSGTPSRFSGSGSGSDFTLTIRNLEPEDFGLYYCQHHNEYPPTFGGGTKLEIK
Take B3: the binding entry in test [1] and in test [2] was “binds” throughout.

B4: C4.1152 (antibody, V domains shown)
VH: EVKLVESDGGLVQPGRSLKLSCAASGFTFSDFYMAWVRQAPTKGLEWIASISHDGRNTYYRDSVKGRFTISRDNAKRTLYLQMDSLRSEDTATYYCASLTARYKGVMGAWGQGTLVTVSS
VL: DVVMTQSPSHLAASPGESVSINCKASKNIYKYLAWYQQKPGKTNKLLIYSGSTLQSGTPSRFSGSGSGSDFTLTIRNLEPEDFGLYYCQHHNEYPPTFGGGTKLEIK
In the case of B4, the binding result in test [1] and in test [2] was “binds” throughout.

B5: C4.1054 (antibody, V domains shown)
VH: QVQLLQSGAALVKPGASVKMSCKPSGYTFTDYWVSWVKQSHGKSLEWIGEIYPNNGATNFNEKFKGKATLTVDKSTSTAYMELSRLTSEDSAIYYCPSRKYGYNWNFDYWGQGTMVTVSS
VL: DIVLTQSPALAVSLGQRATISCRARQSVSISRYNLMHWYQQKPGQQPKVLIYRASNLASGIPARFSGSGSGTDFTLTIDPVQADDIATYYCQQSRDSPWTFGGGTKLELK
Regarding B5, the binding entry in test [1] and in test [2] was “binds” throughout.

These data come from patent US20240010747A1, “ANTI-MRP4 (ENCODED BY ABCC4 GENE) ANTIBODIES AND USES THEREOF” (Kenjockety Biotechnology, Inc., priority 2020, published 2024).
